According to paper PMC10997554:
These are yes or no findings as the source states them, for the method shown. Binding seen in cells or lysates may run through a third protein. Some binding calls cover weakened binding; strength is not graded here.

The chains behind the UniProt entries cited, without tags or fusion partners.
UniProt P51608: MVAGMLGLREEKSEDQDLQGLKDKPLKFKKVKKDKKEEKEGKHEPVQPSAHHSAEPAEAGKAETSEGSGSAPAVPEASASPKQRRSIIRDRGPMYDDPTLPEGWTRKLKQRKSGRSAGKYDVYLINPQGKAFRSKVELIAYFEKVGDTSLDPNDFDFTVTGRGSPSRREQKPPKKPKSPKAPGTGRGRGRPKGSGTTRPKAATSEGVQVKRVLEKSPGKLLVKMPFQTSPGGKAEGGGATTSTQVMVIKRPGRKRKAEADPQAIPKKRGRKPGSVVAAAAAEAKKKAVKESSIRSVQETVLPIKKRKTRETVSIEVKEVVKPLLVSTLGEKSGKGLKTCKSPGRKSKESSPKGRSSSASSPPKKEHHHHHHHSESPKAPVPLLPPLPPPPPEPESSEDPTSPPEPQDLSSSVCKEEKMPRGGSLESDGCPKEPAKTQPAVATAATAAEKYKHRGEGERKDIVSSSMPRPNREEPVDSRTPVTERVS

Target: methyl-CpG-binding protein 2 (MeCP2) (human) (UniProt P51608)
Experiment: co-IP; HeLa cells, 48 h after transfection; lysis buffer 50 mM Tris-HCl pH 7.5, 150 mM NaCl, 10% glycerol, 0.5% NP-40; anti-FLAG M2 magnetic beads or anti-c-Myc affinity agarose, 4 °C, 4 h; western blot

binding: binds
B1: DCAF13 (protein, UniProt Q9NV06 1-445)
chain: MKVKMLSRNPDNYVRETKLDLQRVPRNYDPALHPFEVPREYIRALNATKLERVFAKPFLASLDGHRDGVNCLAKHPEKLATVLSGACDGEVRIWNLTQRNCIRTIQAHEGFVRGICTRFCGTSFFTVGDDKTVKQWKMDGPGYGDEEEPLHTILGKTVYTGIDHHWKEAVFATCGQQVDIWDEQRTNPICSMTWGFDSISSVKFNPIETFLLGSCASDRNIVLYDMRQATPLKKVILDMRTNTICWNPMEAFIFTAANEDYNLYTFDMRALDTPVMVHMDHVSAVLDVDYSPTGKEFVSASFDKSIRIFPVDKSRSREVYHTKRMQHVICVKWTSDSKYIMCGSDEMNIRLWKANASEKLGVLTSREKAAKDYNQKLKEKFQHYPHIKRIARHRHLPKSIYSQIQEQRIMKEARRRKEVNRIKHSKPGSVPLVSEKKKHVVAVVK
